The whole screen tested about 400,000 compounds, of which about 5,500 (1.4%) were called active. Inconclusive results, whose numbers are uncertain, are shown with a selection of clear calls. The call rests on the fitted dose curve; in most records, active means well fitted cell-killing curve with a large enough effect; inconclusive means small, poorly fitted or top-dose-only effect, or effect the other way; inactive means flat fitted curve, though single readings scatter. A potency beside an inconclusive call is a rough fit, not a confirmed value.
Test: qHTS assay for MDR1-selective chemotherapeutics: Primary screen using the parental adenocarcinoma cell KB-3-1; further: nearly all actives have a fitted effect of over 60% in size
Settings: KB-3-1 viability, CellTiter-Glo ATP luminescence, 72 h; activity change, negative = cytotoxic: at 46.1 µM (top of the series)
In short: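 72 h, 37 °C compound treatment of KB-3-1 parental cells; CellTiter-Glo added, 10 min, luminescence read. Data corrected against DMSO-only plates and normalized before curve fitting.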
On the % scale 0 is the no-effect control and ±100 the full control effect; potency means the concentration at half of the fitted maximal effect.

**Q.** With CCSc1nnc(NC(=O)C(C)(C(F)(F)F)C(F)(F)F)s1 as the molecule, how does the Potency read?
**A.** inconclusive: 29.1 µM [cytotoxic, single point]

**Q.** Which “activity change, negative = cytotoxic” value does the source give for Cn1c(COc2ccc(Cl)cc2)nnc1SCC(=O)NC1CCCC1 here?
**A.** inactive: 17.1%

**Q.** Which Potency does the source give for O=C(/C=C\c1ccco1)Oc1cccc2cccnc12 here?
**A.** inconclusive: 16.4 µM [rising, single point]

**Q.** Which Potency does the source give for Cc1ccc(C(=O)Nc2ccncc2)cc1S(=O)(=O)N1CCCCC1 here?
**A.** inconclusive: 29.1 µM [cytotoxic, single point]

**Q.** Which “activity change, negative = cytotoxic” value does the source give for O=C(COC(=O)c1ccccc1C(=O)c1ccc(Cl)cc1)NCc1ccccc1 here?
**A.** inactive: 3.77%

**Q.** For COc1cccc(-n2nnnc2SCC(=O)NC2CCCC2)c1, which “activity change, negative = cytotoxic” value is on record?
**A.** inactive: -1.24%

**Q.** For CN(C(=O)COc1ccccc1C(=O)NCCOc1ccccc1)c1ccccc1, which Potency is on record?
**A.** active: 14.6 µM

**Q.** With COc1ccc(/C=N/NC(=O)c2cc(OC)c(OC)c(OC)c2)cc1CN1CCc2cc(OC)c(OC)cc2C1C (stereo unspecified) as the molecule, how does the Potency read?
**A.** inconclusive: 18.4 µM [cytotoxic, single point]

**Q.** With COc1ccc(CCNc2nc3c(c(=O)n(C)c(=O)n3C)n2Cc2ccc(F)cc2)cc1OC as the molecule, how does the Potency read?
**A.** active: 18.4 µM

**Q.** With Cn1c(SCC(=O)NC2CCCC2)nnc1-c1cccs1 as the molecule, how does the Potency read?
**A.** inconclusive: 4.61 µM [rising, full curve, poor fit]

**Q.** For Cc1cccc(-c2cc3c(nn2)-c2ccccc2C3=O)c1, which Potency is on record?
**A.** inconclusive: 16.4 µM [cytotoxic, single point]

**Q.** Which Potency does the source give for C/C(=N\Nc1cc(N2CCCCC2)nc(C)n1)c1ccc(Br)cc1 here?
**A.** inconclusive: 32.6 µM [cytotoxic, partial curve, poor fit]

**Q.** With CCSc1nnc(NC(=O)c2nc(-c3ccccc3)n(-c3ccccc3)n2)s1 as the molecule, how does the “activity change, negative = cytotoxic” value read?
**A.** inactive: -14.1%

**Q.** With O=C1C=CC(c2c[nH]c3ccccc23)CC1 (stereo unspecified) as the molecule, how does the Potency read?
**A.** inconclusive: 23.1 µM [cytotoxic, single point]

**Q.** For Cc1cccc(N2C(=O)CC(SC(=Nc3ccccc3)Nc3ccccc3)C2=O)c1 (stereo unspecified), which Potency is on record?
**A.** inconclusive: 25.9 µM [cytotoxic, single point]

**Q.** With C/C(=N\NC(=O)COc1ccc(C)cc1Br)c1cc([N+](=O)[O-])cs1 as the molecule, how does the Potency read?
**A.** active: 20.6 µM

**Q.** For Cc1cc(C)c(NC(=O)c2sc3nc(C)cc(C)c3c2N)c(C)c1, which Potency is on record?
**A.** inconclusive: 18.4 µM [cytotoxic, single point]

**Q.** Which Potency does the source give for Cc1ccc2sc(N3CCN(C(=O)C4COc5ccccc5O4)CC3)nc2c1C (stereo unspecified) here?
**A.** inconclusive: 20.6 µM [cytotoxic, single point]

**Q.** Which “activity change, negative = cytotoxic” value does the source give for Cc1ccc(S(=O)(=O)N2CC3(O)CN(C(=O)OC(C)C)N(C(=O)OC(C)C)CC3(OC(=O)NCc3ccccc3)C2)cc1 (stereo unspecified) here?
**A.** inactive: -17.9%

**Q.** For COc1cc(OC)cc(C(=O)N[C@H](C(=O)N2CCc3ccccc32)C(C)C)c1, which “activity change, negative = cytotoxic” value is on record?
**A.** inactive: -12.6%

**Q.** For CN(c1ccccc1)S(=O)(=O)c1cccc(NC(=O)CSc2nncs2)c1, which Potency is on record?
**A.** inconclusive: 18.4 µM [cytotoxic, single point]

**Q.** For COc1cc(NC(=S)NC(=O)c2c(OC)cccc2OC)ccc1NC(=O)c1cccs1, which Potency is on record?
**A.** inconclusive: 20.6 µM [cytotoxic, partial curve, poor fit]

**Q.** Which Potency does the source give for CC1=C(C)/C(=N\OS(=O)(=O)c2ccccc2)C=CC1=O here?
**A.** active: 11.2 µM

**Q.** Which “activity change, negative = cytotoxic” value does the source give for COc1cccc(/C=C/c2nc(C#N)c(N(C)Cc3ccccc3)o2)c1 here?
**A.** inactive: 8.36%

**Q.** Which Potency does the source give for Cc1ccc(S(=O)(=O)Nc2ccc3c4c(cccc24)CC3)c(C)c1 here?
**A.** inconclusive: 29.1 µM [cytotoxic, single point]

**Q.** For COc1cc(NC(=O)C2(C)CCCN2C)cc(OC)c1OC (stereo unspecified), which “activity change, negative = cytotoxic” value is on record?
**A.** inactive: 0%

**Q.** For COc1cc(C(=O)NCc2ccc3c(c2)CCN3C(=O)c2ccncc2)cc(OC)c1OC, which “activity change, negative = cytotoxic” value is on record?
**A.** inactive: -5.9%

**Q.** For Cc1onc(-c2ccccc2)c1C(=O)c1c[nH]c(C(=O)NCc2ccncc2)c1, which “activity change, negative = cytotoxic” value is on record?
**A.** inactive: 4.87%

**Q.** Which Potency does the source give for O=C(CCl)Nc1ccccc1C(=O)Nc1ccc2c(c1)OCO2 here?
**A.** inconclusive: 25.9 µM [cytotoxic, single point]

**Q.** For COCCOC(=O)c1c(NC(=O)CN2CCc3ccccc32)sc(C(N)=O)c1C, which “activity change, negative = cytotoxic” value is on record?
**A.** inactive: -3.36%

**Q.** With Cc1cccc(-n2c(N)c(-c3nc4ccccc4n3C)c3nc4ccccc4nc32)c1 as the molecule, how does the “activity change, negative = cytotoxic” value read?
**A.** inactive: 7.06%

**Q.** For O=C(CCl)N1CCN(C(=O)C2COc3ccccc3O2)CC1 (stereo unspecified), which Potency is on record?
**A.** inconclusive: 29.1 µM [cytotoxic, single point]

**Q.** For CCN(CC)CCn1c2c(c(SCC(=O)Nc3cc(OC)cc(OC)c3)nc1=O)CCC2, which “activity change, negative = cytotoxic” value is on record?
**A.** inactive: -6.35%

**Q.** With O=C(NCC(c1cccs1)N1CCOCC1)c1cn(-c2ccccc2)nc1-c1ccc(Cl)cc1 (stereo unspecified) as the molecule, how does the Potency read?
**A.** inconclusive: 23.1 µM [cytotoxic, single point]

**Q.** With Cc1cccc(C)c1-n1c(C)cc(/C=N/NC(N)=S)c1C as the molecule, how does the Potency read?
**A.** inconclusive: 29.1 µM [cytotoxic, single point]

**Q.** Which Potency does the source give for COC(=O)CSc1nc2ccc(NC(=O)CSc3nnnn3Cc3ccccc3)cc2s1 here?
**A.** inconclusive: 18.4 µM [cytotoxic, single point]

**Q.** With COc1ccc(-c2csc(N(CCCN3CCOCC3)C(=O)c3ccco3)n2)cc1 as the molecule, how does the Potency read?
**A.** inconclusive: 29.1 µM [cytotoxic, single point]

**Q.** Which Potency does the source give for COc1ccc(C(=O)C(CN2CCCC2)c2ccccc2)cc1 (stereo unspecified) here?
**A.** active: 7.08 µM

**Q.** With COc1ccc(CNCc2cc3c(C(C)(C)C)nn(-c4ccccc4)c3[nH]c2=O)cc1 as the molecule, how does the “activity change, negative = cytotoxic” value read?
**A.** inactive: 19.5%

**Q.** With CSc1cccc(NC(=O)CN(C)S(=O)(=O)c2ccc3c(c2)n(C)c(=O)c(=O)n3C)c1 as the molecule, how does the “activity change, negative = cytotoxic” value read?
**A.** inactive: -4.06%

**Q.** Which Potency does the source give for COC(=O)CN(c1cc(Cl)ccc1OC)S(=O)(=O)c1ccc(C)cc1 here?
**A.** inconclusive: 29.1 µM [cytotoxic, single point]

**Q.** Which Potency does the source give for Cc1nn2c(=O)cc(COC(=O)c3ccc(C(C)(C)C)cc3)nc2s1 here?
**A.** inconclusive: 29.1 µM [cytotoxic, single point]

**Q.** Which “activity change, negative = cytotoxic” value does the source give for O=C(Nc1nnc(CCS(=O)(=O)c2ccc3ccccc3c2)s1)c1ccc([N+](=O)[O-])cc1 here?
**A.** inactive: 9.91%

**Q.** With CCN1C(=O)[C@H]2[C@@H](c3ccc(-c4ccc(C(C)=O)cc4)cc3)N3CCCC[C@@]3(C(=O)OC)[C@H]2C1=O as the molecule, how does the Potency read?
**A.** inconclusive: 29.1 µM [cytotoxic, single point]

**Q.** Which Potency does the source give for C=CCn1c(=O)[nH]c2cc(C(=O)N3CCN(c4cccc(Cl)c4)CC3)ccc2c1=O here?
**A.** inconclusive: 16.4 µM [cytotoxic, partial curve, poor fit]

**Q.** For CCc1cc(C(=O)N2CCN(C(=O)c3ccco3)CC2)sc1C, which Potency is on record?
**A.** inconclusive: 0.411 µM [rising, full curve]

**Q.** Which Potency does the source give for CCCCN(C)S(=O)(=O)c1ccc(C(=O)Nc2nnc(CSC)o2)cc1 here?
**A.** inconclusive: 31.6 µM [cytotoxic, single point]

**Q.** With Cc1ccccc1NS(=O)(=O)c1cc(C(=O)NCCC2=CCCCC2)ccc1C as the molecule, how does the “activity change, negative = cytotoxic” value read?
**A.** inactive: -15.2%

**Q.** With Cc1cccc(C)c1NC(=O)c1ccc2nc(CCc3ccccc3)oc2c1 as the molecule, how does the Potency read?
**A.** inconclusive: 20.6 µM [cytotoxic, single point]

**Q.** For S=C(Nc1ccc(Oc2ccccc2)cc1)NC1CCCCC1, which Potency is on record?
**A.** inconclusive: 29.1 µM [cytotoxic, single point]

**Q.** With COCCN(Cc1nc2ccccc2c(=O)[nH]1)C(=O)COc1ccccc1-c1ccccc1 as the molecule, how does the Potency read?
**A.** inconclusive: 18.4 µM [cytotoxic, single point]

**Q.** With Cc1ccc(OCCn2cc(C(=O)O)c3ccccc32)cc1 as the molecule, how does the “activity change, negative = cytotoxic” value read?
**A.** inactive: -4.11%

**Q.** For Cc1ccc(C)c(N2CCN(C(=O)CN3C(=S)NC(C)(C)CC3C)CC2)c1 (stereo unspecified), which “activity change, negative = cytotoxic” value is on record?
**A.** inactive: -10.2%

**Q.** With N#Cc1ccccc1NC(=O)COC(=O)CN1C(=O)C2CCCCC2C1=O (stereo unspecified) as the molecule, how does the Potency read?
**A.** inconclusive: 0.651 µM [rising, full curve, poor fit]

**Q.** Which “activity change, negative = cytotoxic” value does the source give for Cc1nc(NC(=O)c2ccccc2)sc1C here?
**A.** inactive: -13.5%

**Q.** With COc1ccc(O)c(C(=O)CC(=O)c2ccc(F)cc2)c1 as the molecule, how does the Potency read?
**A.** inconclusive: 10.3 µM [cytotoxic, partial curve, poor fit]

**Q.** Which Potency does the source give for O=S(=O)(NCc1ccncc1)c1ccc(S(=O)(=O)NCC2CCCO2)cc1 (stereo unspecified) here?
**A.** active: 23.1 µM

**Q.** For O=C(Nc1sc2c(c1C(=O)O)CCC2)c1cccc(Cl)c1, which Potency is on record?
**A.** inconclusive: 29.1 µM [cytotoxic, single point]

**Q.** With COc1ccc(N(CC(=O)Nc2ccc3c(c2)OCCO3)S(=O)(=O)c2c(C)noc2C)cc1 as the molecule, how does the Potency read?
**A.** inconclusive: 20.6 µM [cytotoxic, single point]

**Q.** With CCOC(=O)N1CCN(C(=O)c2cc(-c3ccncc3)nc3ccccc23)CC1 as the molecule, how does the Potency read?
**A.** inconclusive: 11.6 µM [cytotoxic, partial curve]

**Q.** For O=C(Nc1nc2c(s1)CCc1ccccc1-2)c1cccs1, which Potency is on record?
**A.** inconclusive: 25.9 µM [cytotoxic, single point]

**Q.** Which “activity change, negative = cytotoxic” value does the source give for CSc1ccc(CN2C(=O)C(C)ON=C2c2ccccc2F)cc1 (stereo unspecified) here?
**A.** inactive: -7.5%

**Q.** Which Potency does the source give for O=c1cc(N2CCN(c3ccc(F)cc3)CC2)[nH]c(=O)n1Cc1ccc(F)cc1 here?
**A.** inconclusive: 11.6 µM [cytotoxic, partial curve, poor fit]

**Q.** For CCCCn1c(N)c(N(CC(C)C)C(=O)C2CC(=O)N(Cc3ccco3)C2)c(=O)[nH]c1=O (stereo unspecified), which “activity change, negative = cytotoxic” value is on record?
**A.** inactive: 5.39%

**Q.** With O=C(Nc1cccc(S(=O)(=O)N2CCCCC2)c1)c1ccc([N+](=O)[O-])o1 as the molecule, how does the Potency read?
**A.** inconclusive: 29.1 µM [cytotoxic, single point]

**Q.** For N#Cc1ccc(S(=O)(=O)N2CCCN(c3ccc(C(F)(F)F)cn3)CC2)cc1, which “activity change, negative = cytotoxic” value is on record?
**A.** inactive: 1.97%

**Q.** Which “activity change, negative = cytotoxic” value does the source give for Cc1nnc(N2CCC(C(=O)NCc3ccc(N(C)C)cc3)CC2)c2nn(-c3ccccc3)c(C)c12 here?
**A.** inactive: 6.37%

**Q.** Which Potency does the source give for CCN(CC)CCCOc1cc2nc(N3CCCN(C)CC3)nc(NC3CCN(C)CC3)c2cc1OC here?
**A.** inconclusive: 23.1 µM [cytotoxic, single point]

**Q.** For COc1ccc(-c2nc3scc(-c4ccccc4)n3n2)cc1, which Potency is on record?
**A.** inconclusive: 25.9 µM [cytotoxic, single point]

**Q.** For CCOC(=O)C1(C)CCCN(C(=O)c2ccc(OC)cc2OC)C1 (stereo unspecified), which “activity change, negative = cytotoxic” value is on record?
**A.** inactive: 0%

**Q.** With CCOc1ccccc1CNC(=O)CC(C)n1ccc(C)n1 (stereo unspecified) as the molecule, how does the “activity change, negative = cytotoxic” value read?
**A.** inactive: 3.84%

From PubChem BioAssay AID1347075 (National Center for Advancing Translational Sciences (NCATS), 2019)
